# The list shows a part of the results.
# B1: Intelectin 1 (Homo sapiens), Q8WWA0 (protein)
# chain: MNQLSFLLFLIATTRGWSTDEANTYFKEWTCSSSPSLPRSCKEIKDECPSAFDGLYFLRTENGVIYQTFCDMTSGGGGWTLVASVHENDMRGKCTVGDRWSSQQGSKAVYPEGDGNWANYNTFGSAEAATSDDYKNPGYYDIQAKDLGIWHVPNKSPMQHWRNSSLLRYRTDTGFLQTLGHNLFGIYQKYPVKYGEGKCWTDNGPVIPVVYDFGDAQKTASYYSPYGQREFTAGFVQFRVFNNERAANALCAGMRVTGCNTEHHCIGGGGYFPEASPQQCGDFSGFDWSGYGTHVGYSSSREITEAAVLLFYR
# Columns and labels:
# Assay in all cases: glycan array binding signal (z-score within array); higher = stronger binding
# Conditions in all cases: glycan notation: IUPAC condensed, linker removed
# [1] = molecular target: GlcNAc(b1-6)GalNAc
# Outline: (§1)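 Glycan array binding is given as a within-array Z-score, which can be read as non-binding when negative. The arrays, 3228 of them, came from the Consortium for Functional Glycomics database and were retained only where the protein sequence was available. Z-scores were averaged across arrays of the same protein sequence at different concentrations or buffers and across linkers.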
# [2] = molecular target: GlcNAc3Prop(b1-4)GlcNAc
# Outline: as §1
# [3] = molecular target: GlcNAc6S(b1-3)Gal(b1-4)GlcNAc
# Outline: as §1
# [4] = molecular target: Kdn(a2-3)Gal(b1-3)GalNAc
# Outline: as §1
# [5] = molecular target: Kdn(a2-3)Gal(b1-3)GlcNAc
# Outline: as §1
# [6] = molecular target: Kdn(a2-3)Gal(b1-4)Glc
# Outline: as §1
# [7] = molecular target: Kdn(a2-3)Gal(b1-4)GlcNAc
# Outline: as §1
# [8] = molecular target: Kdn(a2-3)Gal(b1-4)[Fuc(a1-3)]GlcNAc
# Outline: as §1
# [9] = molecular target: Kdn(a2-6)Gal(b1-4)GlcNAc
# Outline: as §1
# [10] = molecular target: Man(a1-2)Man(a1-2)Man(a1-3)Man
# Outline: as §1
# [11] = molecular target: Man(a1-2)Man(a1-2)Man(a1-6)[Man(a1-3)]Man
# Outline: as §1
# [12] = molecular target: Man(a1-2)Man(a1-3)Man
# Outline: as §1
# [13] = molecular target: Man(a1-2)Man(a1-3)[Man(a1-2)Man(a1-6)]Man
# Outline: as §1
# [14] = molecular target: Man(a1-2)Man(a1-3)[Man(a1-2)Man(a1-6)]Man(a1-6)[Man(a1-2)Man(a1-2)Man(a1-3)]Man
# Outline: as §1
# [15] = molecular target: Man(a1-2)Man(a1-3)[Man(a1-2)Man(a1-6)]Man(a1-6)[Man(a1-2)Man(a1-2)Man(a1-3)]Man(b1-4)GlcNAc(b1-4)GlcNAc
# Outline: as §1
# [16] = molecular target: Man(a1-2)Man(a1-3)[Man(a1-6)]Man(a1-6)[Man(a1-2)Man(a1-3)]Man(b1-4)GlcNAc(b1-4)GlcNAc
# Outline: as §1
# [17] = molecular target: Man(a1-2)Man(a1-6)[Man(a1-3)]Man(a1-6)[Man(a1-2)Man(a1-2)Man(a1-3)]Man
# Outline: as §1
# [18] = molecular target: Man(a1-2)Man(a1-6)[Man(a1-3)]Man(a1-6)[Man(a1-2)Man(a1-2)Man(a1-3)]Man(b1-4)GlcNAc(b1-4)GlcNAc
# Outline: as §1
# [19] = molecular target: Man(a1-3)[Man(a1-6)]Man
# Outline: as §1
# [20] = molecular target: Man(a1-3)[Man(a1-6)]Man(a1-6)[Man(a1-2)Man(a1-3)]Man(b1-4)GlcNAc(b1-4)GlcNAc
# Outline: as §1
# [21] = molecular target: Man(a1-3)[Man(a1-6)]Man(a1-6)[Man(a1-3)]Man
# Outline: as §1
# [22] = molecular target: Man(a1-3)[Man(a1-6)]Man(a1-6)[Man(a1-3)]Man(b1-4)GlcNAc(b1-4)GlcNAc
# Outline: as §1
# [23] = molecular target: Man(a1-3)[Man(a1-6)]Man(b1-4)GlcNAc(b1-4)GlcNAc
# Outline: as §1
# [24] = molecular target: Man(a1-6)Man
# Outline: as §1
# [25] = molecular target: Man(b1-4)GlcNAc
# Outline: as §1
# [26] = molecular target: Neu5Ac(a2-3)Gal
# Outline: as §1
# [27] = molecular target: Neu5Ac(a2-3)Gal(b1-3)GalNAc
# Outline: as §1
# [28] = molecular target: Neu5Ac(a2-3)Gal(b1-3)GalNAc(b1-3)Gal(a1-4)Gal(b1-4)Glc
# Outline: as §1
# [29] = molecular target: Neu5Ac(a2-3)Gal(b1-3)GalNAc(b1-4)[Neu5Ac(a2-3)]Gal(b1-4)Glc
# Outline: as §1
# [30] = molecular target: Neu5Ac(a2-3)Gal(b1-3)GalNAc(b1-4)[Neu5Ac(a2-8)Neu5Ac(a2-3)]Gal(b1-4)Glc
# Outline: as §1
# [31] = molecular target: Neu5Ac(a2-3)Gal(b1-3)GalNAc6S
# Outline: as §1
# [32] = molecular target: Neu5Ac(a2-3)Gal(b1-3)GlcNAc
# Outline: as §1
# [33] = molecular target: Neu5Ac(a2-3)Gal(b1-3)GlcNAc(b1-3)Gal(b1-3)GlcNAc
# Outline: as §1
# [34] = molecular target: Neu5Ac(a2-3)Gal(b1-3)GlcNAc(b1-3)Gal(b1-4)GlcNAc
# Outline: as §1
# [35] = molecular target: Neu5Ac(a2-3)Gal(b1-3)GlcNAc(b1-3)GalNAc
# Outline: as §1
# [36] = molecular target: Neu5Ac(a2-3)Gal(b1-3)GlcNAc6S
# Outline: as §1
# [37] = molecular target: Neu5Ac(a2-3)Gal(b1-3)[Fuc(a1-4)]GlcNAc
# Outline: as §1
binder,measurement,setting,value
B1,glycan array binding signal (z-score),[1],-0.353
same,glycan array binding signal (z-score),[2],-0.496
same,glycan array binding signal (z-score),[3],-0.014
same,glycan array binding signal (z-score),[4],-0.099
same,glycan array binding signal (z-score),[5],0.228
same,glycan array binding signal (z-score),[6],0.5
same,glycan array binding signal (z-score),[7],0.657
same,glycan array binding signal (z-score),[8],-0.345
same,glycan array binding signal (z-score),[9],-0.805
same,glycan array binding signal (z-score),[10],1.53
same,glycan array binding signal (z-score),[11],-0.031
same,glycan array binding signal (z-score),[12],-0.057
same,glycan array binding signal (z-score),[13],-0.138
same,glycan array binding signal (z-score),[14],-0.313
same,glycan array binding signal (z-score),[15],-0.295
same,glycan array binding signal (z-score),[16],-0.195
same,glycan array binding signal (z-score),[17],0.182
same,glycan array binding signal (z-score),[18],-0.909
same,glycan array binding signal (z-score),[19],0.039
same,glycan array binding signal (z-score),[20],-0.453
same,glycan array binding signal (z-score),[21],-0.368
same,glycan array binding signal (z-score),[22],-0.432
same,glycan array binding signal (z-score),[23],-0.39
same,glycan array binding signal (z-score),[24],0.134
same,glycan array binding signal (z-score),[25],-0.207
same,glycan array binding signal (z-score),[26],-0.392
same,glycan array binding signal (z-score),[27],-0.389
same,glycan array binding signal (z-score),[28],-0.779
same,glycan array binding signal (z-score),[29],0.339
same,glycan array binding signal (z-score),[30],0.491
same,glycan array binding signal (z-score),[31],0.034
same,glycan array binding signal (z-score),[32],-0.17
same,glycan array binding signal (z-score),[33],-0.36
same,glycan array binding signal (z-score),[34],0.545
same,glycan array binding signal (z-score),[35],-0.18
same,glycan array binding signal (z-score),[36],-0.891
same,glycan array binding signal (z-score),[37],0.274

# — the supplement of paper PMC8728848
